From PubChem BioAssay AID2685 (National Center for Advancing Translational Sciences (NCATS), 2010)
Some of the results follow. Shown are side measurements of this screen, not its main read-out; they come without a call. The list favours compounds with an active or inconclusive main result. Potencies come from curve fits of mixed quality, noted in brackets.

Assay: qHTS Assay for Lipid Storage Modulators in Drosophila S3 Cells;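 on cell number change: cells counted by Cell Tracker Red CMTPX staining in the red channel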
Settings: BODIPY lipid droplet fluorescence, 18-24 h; for cell number change: measured here: cell count max response, cells fed with added oleic acid
Outline: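 Drosophila S3 cells got compounds at several concentrations plus oleic acid (400 uM solution). Laser-scanning cytometry with 488 nm excitation read lipid droplets at 500-530 nm and cells at 575-640 nm. Percent activity was relative to 20 uM Triacsin C.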

[1] = measured here: lipid fluorescence (Fed channel) AC50, cells fed with added oleic acid
[2] = measured here: cell number channel AC50, cells fed with added oleic acid

SMILES | cell number change [%] | AC50 [1] | AC50 [2]
CC(C)CC(NC(=O)C1CCC(C)CC1)C(=O)NCc1cccnc1 (configuration not stated) | 20.2 | – | –
COc1ccc(C)cc1NC(=O)C(Sc1nnc2ccccn12)c1ccccc1 (configuration not stated) | 17.8 | 4.61 µM [rising, partial curve] | –
O=C1CC(c2ccccc2Br)c2cc3c(cc2N1)CCC3 (configuration not stated) | 22.5 | 5.8 µM [rising, single point] | –
c1ccc(COc2ccc(CNCc3cccs3)cc2)cc1 | – | 2.06 µM [falling, partial curve] | –
Cc1ccc(C(=O)OCC(=O)Nc2ccc(N(C)C)cc2)cc1NC(=O)c1ccco1 | – | – | 0.82 µM [rising, full curve, poor fit]
CC1(c2nnc(Cc3ccccc3)o2)CC(c2cccc([N+](=O)[O-])c2)=NO1 (configuration not stated) | 1.04 | – | –
COc1ccc(C2=CSC3=NNC4(CCCCC4)NN23)cc1 | 5.56 | – | 0.146 µM [falling, partial curve, poor fit]
Cc1ccccc1CNc1ccc(C(CC(N)=O)NC(=O)c2ccc(Br)cc2)cc1[N+](=O)[O-] (configuration not stated) | 24.3 | – | –
O=C(Nc1ccccc1F)c1cc(C(=O)Nc2ccccc2F)cc([N+](=O)[O-])c1 | -29.1 | 18.4 µM [falling, single point] | –
O=C1CC(c2cccc(Oc3ccccc3)c2)NC(=O)N1 (configuration not stated) | 30.3 | 14.6 µM [rising, partial curve, poor fit] | 14.6 µM [rising, partial curve, poor fit]
Fc1cccc(Cn2cc(C(=S)N3CCCCC3)c3ccccc32)c1 | – | – | 2.91 µM [rising, partial curve]
Nc1cc(=O)[nH]c(SCC(=O)Nc2nnc(-c3ccccc3)s2)n1 | -4.42 | 0.146 µM [falling, full curve, poor fit] | 0.146 µM [falling, full curve, poor fit]
Cc1c(NC(=O)c2ccc3c(c2)OCO3)cccc1-c1nc2ncccc2o1 | – | – | 0.0517 µM [rising, full curve, poor fit]
Cc1ccc(C(=O)OC(C)C(=O)NC2CCCCC2C)s1 (configuration not stated) | 3.67 | 0.00517 µM [rising, full curve, poor fit] | –
Cc1noc(/C=C/c2ccccn2)c1[N+](=O)[O-] | -29.8 | 10.3 µM [falling, partial curve] | –
OCC1(CO)COC2(CCCC2)N1 | 4.43 | – | –
CC(Sc1nc2ccccc2c(=O)n1CC1CCCO1)C(=O)N(C)c1ccccc1 (configuration not stated) | -19.6 | 0.291 µM [falling, partial curve, poor fit] | –
Cc1nc(-c2cccnc2)sc1C(=O)Nc1ccc(F)cc1F | -31.9 | 0.00461 µM [falling, full curve, poor fit] | –
COc1ccc(N2CCN(C(=O)c3ccc(COc4ccc([N+](=O)[O-])cc4)o3)CC2)cc1 | -11 | 3.66 µM [rising, partial curve] | –
O=C(CNC(=O)c1ccccc1F)OCc1nc2ccccc2s1 | 0.841 | – | –
CC(CC(=O)N(CCC1=CCCCC1)c1c(N)n(Cc2ccccc2)c(=O)[nH]c1=O)c1ccccc1 (configuration not stated) | -32.6 | – | 29.1 µM [falling, single point]

SMILES | cell number change [%] | AC50 [1] | AC50 [2]
COc1ccc(CC(=O)Nc2cccc(S(=O)(=O)N3CCCC3)c2)cc1OC | -34.2 | 23.1 µM [falling, partial curve] | 10.3 µM [falling, partial curve, poor fit]
Cc1oc(-c2ccccc2Cl)nc1CSc1nc2c(c(=O)[nH]1)CCC2 | 8.15 | 16.4 µM [rising, single point] | –
O=C(CCCCCCCCC(=O)N/N=C/c1ccco1)N/N=C/c1ccco1 | 29.6 | 14.6 µM [rising, single point] | –
COc1ccc(OC)c(NC(=O)CNC(=O)Cn2c(C)cc3ccccc3c2=O)c1 | -55.5 | – | 29.1 µM [falling, single point]
Cc1ccc(NC(=O)/C=C/c2ccc([N+](=O)[O-])s2)c(C)c1 | -34.9 | 1.64 µM [falling, partial curve, poor fit] | 1.64 µM [falling, full curve, poor fit]
O=C(N/N=C/c1ccc2c(c1)OCO2)c1ccc(NC(=O)c2ccc(F)cc2)cc1 | 17.1 | 8.2 µM [falling, single point] | –
COc1ccc(N2CCN(CC(O)COC(c3ccccc3)c3ccccc3)CC2)cc1 (configuration not stated) | -14.3 | – | –
COc1ccc(-c2cn(-c3ccc(C)cc3)c(=O)n2CC(=O)Nc2ccc(OC)c(OC)c2)cc1 | 42.6 | – | 2.31 µM [rising, partial curve]
Cc1ccsc1/C=N/NC(=O)Nc1ccccc1 | – | 0.58 µM [rising, single point] | 0.651 µM [rising, single point]
C[C@H](NC(=O)[C@@H]1Cc2ccccc2CN1)C(=O)Nc1ccc2c(c1)OCO2 | 10.6 | – | 3.26 µM [rising, single point]
CC(C)(C)C(=O)Nc1nc(-c2ccccc2)ns1 | -32 | 29.1 µM [falling, single point] | 29.1 µM [falling, single point]
Cc1oc(-c2ccccc2F)nc1CN1CCC(C(=O)NCc2cccs2)CC1 | 15 | – | –
COc1cc(OC)cc(-c2c(-c3cccs3)c3cc(-c4ccc(OC)c(OC)c4)ccc3n2C)c1 | 26.6 | 18.4 µM [rising, partial curve, poor fit] | –
CCOC(=O)N1CCN(C(=O)COc2ccc(S(=O)(=O)NC3CCCCC3)cc2C)CC1 | – | – | 4.11 µM [rising, partial curve]
COc1ccc(NC(=O)c2ccc3c(c2)NC(=O)CS3)cc1S(=O)(=O)Nc1ccc(Br)cc1 | -22.3 | – | –
Cc1ccc(Cn2nc3c4cc(F)ccc4n(Cc4ccc(F)cc4)cc-3c2=O)cc1 | -5.56 | – | –
O=C1C=C(c2ccc3[nH]ccc3c2)C[C@@H](c2ccc(F)cc2)C1 | -4.98 | 1.16 µM [falling, single point] | –
O=c1c(-c2ccccc2)c[nH]n1-c1cccc([N+](=O)[O-])c1 | -12.4 | 0.00411 µM [rising, full curve, poor fit] | –
COC(=O)/C(=C\Nc1ccc(Cl)cc1Cl)NC(=O)c1ccccc1 | -15.8 | 0.517 µM [rising, full curve] | –
COc1ccc(Cc2nnc(SCC(=O)Nc3ccc(N4CCOCC4)cc3)o2)cc1 | 21 | 2.31 µM [rising, partial curve] | –
O=S1(=O)N=C2CCCCCN2C(c2ccc(F)cc2)N1 (configuration not stated) | -44.2 | 0.651 µM [falling, full curve, poor fit] | 0.231 µM [falling, partial curve, poor fit]

Five compounds drawn at random from those above:
SMILES | cell number change [%] | AC50 [1] | AC50 [2]
O=c1c(-c2ccccc2)c[nH]n1-c1cccc([N+](=O)[O-])c1 | -12.4 | 0.00411 µM [rising, full curve, poor fit] | –
COc1ccc(NC(=O)c2ccc3c(c2)NC(=O)CS3)cc1S(=O)(=O)Nc1ccc(Br)cc1 | -22.3 | – | –
CC(C)(C)C(=O)Nc1nc(-c2ccccc2)ns1 | -32 | 29.1 µM [falling, single point] | 29.1 µM [falling, single point]
Cc1ccsc1/C=N/NC(=O)Nc1ccccc1 | – | 0.58 µM [rising, single point] | 0.651 µM [rising, single point]
COc1cc(OC)cc(-c2c(-c3cccs3)c3cc(-c4ccc(OC)c(OC)c4)ccc3n2C)c1 | 26.6 | 18.4 µM [rising, partial curve, poor fit] | –

Additional results.

SMILES | cell number change [%] | AC50 [1] | AC50 [2]
O=C(/C=C/c1ccccc1)NC1CCCc2ccccc21 (configuration not stated) | 17.2 | 0.00517 µM [falling, full curve, poor fit] | –
Cc1ccc(C)c(NC(=O)CSc2nc(C)cs2)c1 | -26.3 | 0.0517 µM [falling, full curve, poor fit] | –
O=C1N[C@H](Cc2ccccc2)CO1 | 15.4 | 32.6 µM [rising, single point] | –
Cc1cccc(N2CCN(S(=O)(=O)c3ccc4c(c3)NC(=O)CS4)CC2)c1C | -21.1 | 9.2 µM [falling, partial curve] | –
Cc1cccc(C(=O)n2cnnc2N)c1 | -0.264 | – | –
COc1ccc(N2CCN(C3CC(=O)NC3=O)CC2)cc1 (configuration not stated) | -8.72 | 0.231 µM [falling, full curve, poor fit] | –
CCOc1ccc(NC2=CC(=O)CCC2)cc1 | 24.8 | 18.4 µM [rising, partial curve, poor fit] | –
CCOc1ccc(N2CCCCn3c2nc2c3c(=O)[nH]c(=O)n2C)cc1 | 8.69 | 4.11 µM [rising, full curve, poor fit] | 0.517 µM [falling, single point]
O=C1C(=O)N(O)C2CCCCC2N1O (configuration not stated) | -26.2 | 0.103 µM [falling, full curve, poor fit] | –
CCOC(=O)C1CCCN(C(=O)c2ccc3oc(CCc4ccccc4)nc3c2)C1 (configuration not stated) | 6.6 | 0.13 µM [falling, full curve, poor fit] | –
COc1cc(Cl)c(S(=O)(=O)N2CCN(Cc3ccc4c(c3)OCO4)CC2)cc1Cl | -8.25 | – | –
CCOc1cc2[nH]c(=O)n(CCCCCC(=O)NCc3ccco3)c(=O)c2cc1OCC | -53.9 | – | 29.1 µM [falling, single point]
CCOC(=O)c1c(C)n(C)c2ccc(O)c(CN(CC)CC)c12 | 52.4 | 29.1 µM [rising, partial curve] | 32.6 µM [rising, single point]
COc1ccc(/C=C(\C#N)C(=O)OC2CCOC2=O)cc1 (configuration not stated) | – | 0.0651 µM [falling, partial curve, poor fit] | –
O=C(CO/N=C/c1ccc(OC(F)F)cc1)NC1CCCCCC1 | – | – | 0.58 µM [rising, single point]
O=C(N/C(=C\c1ccc([N+](=O)[O-])cc1)C(=O)N1CCCCC1)c1ccco1 | 14.6 | – | –
O=S1(=O)CC(O)C(N(CCO)C(=S)Nc2ccccc2)C1 (configuration not stated) | 14.3 | 0.259 µM [rising, partial curve, poor fit] | –
CCCn1c(N)c(C(=O)CN2CCc3ccccc3C2)c(=O)n(C)c1=O | 6.49 | 0.82 µM [rising, full curve, poor fit] | –
CCOC(=O)C1CCN(C(=O)CNC(=O)c2nn(-c3ccc(OC)c(Cl)c3)c(=O)c3ccccc23)CC1 | -9.52 | 6.51 µM [falling, single point] | 3.66 µM [falling, single point]
